Measured data: PubChem BioAssay AID1224830 (NIAID, 2016)
Aim: 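Host factors that control LPS-induced TNF expression in human macrophages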 (primary screen). Cell system: human THP-1 monocytic leukaemia cells, TNF dual-luciferase reporter clone, PMA-differentiated to macrophage-like cells. Reagents: siRNA pool against human genes, 50 nM. Timing: LPS for 4 h, given about 3 days after siRNA transfection. Conditions: bacterial LPS (TLR4 ligand), 10 ng/ml. Measured: 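TNF firefly reporter luminescence divided by renilla, normalised to the plate median, then turned into a robust z-score for each replicate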. Direction: TNF reporter robust z-score: higher = stronger TNF reporter response to LPS. Call rule: 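a well is active when its z-score exceeds 2.8 or falls below -1.5; control wells carry no call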.
This is an unselected part of about 18,000 deposited reagents. About 2,900 of them (16%) were called active. 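Calls are made per well; low scores hint the gene aids the LPS response, high scores that it dampens it.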 A number with no mark means an inactive call. Repeated entries: four replicate wells of each siRNA pool. No sequences are given here.

no.	target gene	PubChem SID	TNF reporter robust z-score
1	INTS6L (integrator complex subunit 6 like)	SID315463129	2.58
2	INTS6L (integrator complex subunit 6 like)	SID315463129	2.56
3	INTS6L (integrator complex subunit 6 like)	SID315463129	1.25
4	INTS6L (integrator complex subunit 6 like)	SID315463129	1.09
5	C5orf22 (chromosome 5 open reading frame 22)	SID315457593	-1.12
6	C5orf22 (chromosome 5 open reading frame 22)	SID315457593	-0.2
7	C5orf22 (chromosome 5 open reading frame 22)	SID315457593	-1.08
8	C5orf22 (chromosome 5 open reading frame 22)	SID315457593	-0.47
9	IMP4 (IMP U3 small nucleolar ribonucleoprotein 4)	SID315461040	0.72
10	IMP4 (IMP U3 small nucleolar ribonucleoprotein 4)	SID315461040	1.61
11	IMP4 (IMP U3 small nucleolar ribonucleoprotein 4)	SID315461040	0.94
12	IMP4 (IMP U3 small nucleolar ribonucleoprotein 4)	SID315461040	1.19
13	SYK (spleen associated tyrosine kinase)	SID315451721	-0.8
14	SYK (spleen associated tyrosine kinase)	SID315451721	-0.58
15	SYK (spleen associated tyrosine kinase)	SID315451721	-0.79
16	SYK (spleen associated tyrosine kinase)	SID315451721	0.1
17	UMPS (uridine monophosphate synthetase)	SID315452074	0.4
18	UMPS (uridine monophosphate synthetase)	SID315452074	0.59
19	UMPS (uridine monophosphate synthetase)	SID315452074	-0.79
20	UMPS (uridine monophosphate synthetase)	SID315452074	0.21
21	MEX3C (mex-3 RNA binding family member C)	SID315456645	-0.01
22	MEX3C (mex-3 RNA binding family member C)	SID315456645	0.14
23	MEX3C (mex-3 RNA binding family member C)	SID315456645	-0.35
24	MEX3C (mex-3 RNA binding family member C)	SID315456645	0.59
25	RNF125 (ring finger protein 125)	SID315457285	-0.91
26	RNF125 (ring finger protein 125)	SID315457285	-0.86
27	RNF125 (ring finger protein 125)	SID315457285	0.11
28	RNF125 (ring finger protein 125)	SID315457285	-0.53
29	ABCB6 (ATP binding cassette subfamily B member 6 (LAN blood group))	SID315453785	-1.15
30	ABCB6 (ATP binding cassette subfamily B member 6 (LAN blood group))	SID315453785	-0.38
31	ABCB6 (ATP binding cassette subfamily B member 6 (LAN blood group))	SID315453785	-0.89
32	ABCB6 (ATP binding cassette subfamily B member 6 (LAN blood group))	SID315453785	-0.27
33	FUZ (fuzzy planar cell polarity protein)	SID315459693	-0.07
34	FUZ (fuzzy planar cell polarity protein)	SID315459693	0.24
35	FUZ (fuzzy planar cell polarity protein)	SID315459693	-0.73
36	FUZ (fuzzy planar cell polarity protein)	SID315459693	-0.14
37	ANAPC16 (anaphase promoting complex subunit 16)	SID315461468	2.86 (active)
38	ANAPC16 (anaphase promoting complex subunit 16)	SID315461468	2.73
39	ANAPC16 (anaphase promoting complex subunit 16)	SID315461468	-0.42
40	ANAPC16 (anaphase promoting complex subunit 16)	SID315461468	1.68
41	UPB1 (beta-ureidopropionase 1)	SID315456870	-0.84
42	UPB1 (beta-ureidopropionase 1)	SID315456870	0.52
43	UPB1 (beta-ureidopropionase 1)	SID315456870	-0.02
44	UPB1 (beta-ureidopropionase 1)	SID315456870	-0.38

11 neighbouring entries from above, for reference:
no.	target gene	PubChem SID	TNF reporter robust z-score
15	SYK (spleen associated tyrosine kinase)	SID315451721	-0.79
16	SYK (spleen associated tyrosine kinase)	SID315451721	0.1
17	UMPS (uridine monophosphate synthetase)	SID315452074	0.4
18	UMPS (uridine monophosphate synthetase)	SID315452074	0.59
19	UMPS (uridine monophosphate synthetase)	SID315452074	-0.79
20	UMPS (uridine monophosphate synthetase)	SID315452074	0.21
21	MEX3C (mex-3 RNA binding family member C)	SID315456645	-0.01
22	MEX3C (mex-3 RNA binding family member C)	SID315456645	0.14
23	MEX3C (mex-3 RNA binding family member C)	SID315456645	-0.35
24	MEX3C (mex-3 RNA binding family member C)	SID315456645	0.59
25	RNF125 (ring finger protein 125)	SID315457285	-0.91

Additional reagents follow.
no.	target gene	PubChem SID	TNF reporter robust z-score
45	COX6A1 (cytochrome c oxidase subunit 6A1)	SID315448048	0.94
46	COX6A1 (cytochrome c oxidase subunit 6A1)	SID315448048	0.44
47	COX6A1 (cytochrome c oxidase subunit 6A1)	SID315448048	1.13
48	COX6A1 (cytochrome c oxidase subunit 6A1)	SID315448048	0.52
49	STK35 (serine/threonine kinase 35)	SID315462160	-0.05
50	STK35 (serine/threonine kinase 35)	SID315462160	1.13
51	STK35 (serine/threonine kinase 35)	SID315462160	0.11
52	STK35 (serine/threonine kinase 35)	SID315462160	0.37
53	PAM (peptidylglycine alpha-amidating monooxygenase)	SID315450420	0.34
54	PAM (peptidylglycine alpha-amidating monooxygenase)	SID315450420	-0.27
55	PAM (peptidylglycine alpha-amidating monooxygenase)	SID315450420	-0.17
56	PAM (peptidylglycine alpha-amidating monooxygenase)	SID315450420	-0.23
57	PTPDC1 (protein tyrosine phosphatase domain containing 1)	SID315462047	-1.39
58	PTPDC1 (protein tyrosine phosphatase domain containing 1)	SID315462047	-1.24
59	PTPDC1 (protein tyrosine phosphatase domain containing 1)	SID315462047	-0.57
60	PTPDC1 (protein tyrosine phosphatase domain containing 1)	SID315462047	-0.6
61	SMAGP (small cell adhesion glycoprotein)	SID315458345	-0.51
62	SMAGP (small cell adhesion glycoprotein)	SID315458345	-0.79
63	SMAGP (small cell adhesion glycoprotein)	SID315458345	-1.56 (active)
64	SMAGP (small cell adhesion glycoprotein)	SID315458345	-0.53
65	LRRC47 (leucine rich repeat containing 47)	SID315458401	-0.94
66	LRRC47 (leucine rich repeat containing 47)	SID315458401	-0.8
67	LRRC47 (leucine rich repeat containing 47)	SID315458401	0.71
68	LRRC47 (leucine rich repeat containing 47)	SID315458401	-0.69
69	FGGY (FGGY carbohydrate kinase domain containing)	SID315457556	0
70	FGGY (FGGY carbohydrate kinase domain containing)	SID315457556	-0.03
71	FGGY (FGGY carbohydrate kinase domain containing)	SID315457556	0.9
72	FGGY (FGGY carbohydrate kinase domain containing)	SID315457556	0.64
73	WFDC3 (WAP four-disulfide core domain 3)	SID315462117	1.01
74	WFDC3 (WAP four-disulfide core domain 3)	SID315462117	1.67
75	WFDC3 (WAP four-disulfide core domain 3)	SID315462117	0.98
76	WFDC3 (WAP four-disulfide core domain 3)	SID315462117	1.96
77	ACSM2A (acyl-CoA synthetase medium chain family member 2A)	SID315461592	-1
78	ACSM2A (acyl-CoA synthetase medium chain family member 2A)	SID315461592	0.58
79	ACSM2A (acyl-CoA synthetase medium chain family member 2A)	SID315461592	0.91
80	ACSM2A (acyl-CoA synthetase medium chain family member 2A)	SID315461592	-0.66
81	IFNA6 (interferon alpha 6)	SID315449411	0.2
82	IFNA6 (interferon alpha 6)	SID315449411	1.27
83	IFNA6 (interferon alpha 6)	SID315449411	3.72 (active)
84	IFNA6 (interferon alpha 6)	SID315449411	0.77
85	OR11H4 (olfactory receptor family 11 subfamily H member 4)	SID315464648	2.54
86	OR11H4 (olfactory receptor family 11 subfamily H member 4)	SID315464648	-0.18
87	OR11H4 (olfactory receptor family 11 subfamily H member 4)	SID315464648	-0.19
88	OR11H4 (olfactory receptor family 11 subfamily H member 4)	SID315464648	1.14
89	COA3 (cytochrome c oxidase assembly factor 3)	SID315456077	-1.48
90	COA3 (cytochrome c oxidase assembly factor 3)	SID315456077	-1.28
91	COA3 (cytochrome c oxidase assembly factor 3)	SID315456077	-0.58
92	COA3 (cytochrome c oxidase assembly factor 3)	SID315456077	-1.03
93	ZNF229 (zinc finger protein 229)	SID315452294	-0.18
94	ZNF229 (zinc finger protein 229)	SID315452294	0.86
95	ZNF229 (zinc finger protein 229)	SID315452294	1.54
96	ZNF229 (zinc finger protein 229)	SID315452294	0.03
97	LINC03042 (long independently transcribed non-coding RNA 3042)	SID315464568	-0.84
98	LINC03042 (long independently transcribed non-coding RNA 3042)	SID315464568	-0.03
99	LINC03042 (long independently transcribed non-coding RNA 3042)	SID315464568	-0.26
100	LINC03042 (long independently transcribed non-coding RNA 3042)	SID315464568	0.61
101	CEBPA (CCAAT enhancer binding protein alpha)	SID315447870	-0.76
102	CEBPA (CCAAT enhancer binding protein alpha)	SID315447870	-0.28
103	CEBPA (CCAAT enhancer binding protein alpha)	SID315447870	-0.38
104	CEBPA (CCAAT enhancer binding protein alpha)	SID315447870	-0.55
105	SACM1L (SAC1 like phosphatidylinositide phosphatase)	SID315454866	2.25
106	SACM1L (SAC1 like phosphatidylinositide phosphatase)	SID315454866	1.57
107	SACM1L (SAC1 like phosphatidylinositide phosphatase)	SID315454866	0.69
108	SACM1L (SAC1 like phosphatidylinositide phosphatase)	SID315454866	0.65
109	DMD (dystrophin)	SID315448328	-0.17
110	DMD (dystrophin)	SID315448328	-0.44
111	DMD (dystrophin)	SID315448328	-0.59
112	DMD (dystrophin)	SID315448328	-0.54
